Source: the supplement of paper PMC4862054
Most entries show no effect beyond the scatter of the controls.

Experiments:
Assay in all cases: normalised response (% of control), CellTox Green; higher = less cell death (100 = DMSO, 0 = benzethonium chloride kill control)
Settings in all cases: incubation time: 72 h
MCF-10A = tested on: MCF-10A
Protocol: (§1)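 DSRT, 72 h incubation, CellTox Green / CellTiter-Glo readout. Signal is normalised to DMSO and benzethonium chloride controls. Value is the normalised response at the lowest tested concentration.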

CAL-120 = tested on: CAL-120
Protocol: as §1

MDA-MB-231 = tested on: MDA-MB-231
Protocol: as §1

DU-4475 = tested on: DU-4475
Protocol: as §1

MDA-MB-453 = tested on: MDA-MB-453
Protocol: as §1

HCC1143 = tested on: HCC1143
Protocol: as §1

HDQ-P1 = tested on: HDQ-P1
Protocol: as §1

Hs578T = tested on: Hs578T
Protocol: as §1

HCC1937 = tested on: HCC1937
Protocol: as §1

MDA-MB-468 = tested on: MDA-MB-468
Protocol: as §1

BT-549 = tested on: BT-549
Protocol: as §1

CAL-85-1 = tested on: CAL-85-1
Protocol: as §1

BT-474 = tested on: BT-474
Protocol: as §1

MFM-223 = tested on: MFM-223
Protocol: as §1

HCC1599 = tested on: HCC1599
Protocol: as §1

CAL-51 = tested on: CAL-51
Protocol: as §1

MDA-MB-436 = tested on: MDA-MB-436
Protocol: as §1

CAL-148 = tested on: CAL-148
Protocol: as §1

Compound	normalised response (MCF-10A)	normalised response (CAL-120)	normalised response (MDA-MB-231)	normalised response (DU-4475)	normalised response (MDA-MB-453)	normalised response (HCC1143)	normalised response (HDQ-P1)	normalised response (Hs578T)	normalised response (HCC1937)	normalised response (MDA-MB-468)	normalised response (BT-549)	normalised response (CAL-85-1)	normalised response (BT-474)	normalised response (MFM-223)	normalised response (HCC1599)	normalised response (CAL-51)	normalised response (MDA-MB-436)	normalised response (CAL-148)
CCCCC/C=C/C=C1/C(=O)C=C[C@@H]1C/C=C\CCCC(=O)O [15D-PGJ2] (0.08 nM)	117%	104%	114%	112%	106%	113%	105%	118%	74.5%	105%	93.5%	97.3%	101%	95.1%	123%	106%	–	–
CO[C@H]1/C=C\C=C(/C)C(=O)NC2=CC(=O)C(NCCN(C)C)=C(C[C@@H](C)C[C@H](OC)[C@H](O)[C@@H](C)/C=C(\C)[C@@H]1OC(N)=O)C2=O [Alvespimycin] (0.1 nM)	106%	105%	107%	98.7%	104%	80%	102%	106%	–	97.1%	99.7%	102%	103%	94%	100%	69.9%	62.5%	104%
COC(=O)c1ccc2c(c1)NC(=O)/C2=C(\Nc1ccc(N(C)C(=O)CN2CCN(C)CC2)cc1)c1ccccc1 [Nintedanib] (1 nM)	–	102%	114%	102%	103%	129%	97.9%	108%	78.8%	111%	101%	108%	98.2%	102%	96.3%	117%	51.2%	92.7%
C/C(=C\c1csc(C)n1)[C@@H]1C[C@@H]2O[C@]2(C)CCC[C@H](C)[C@H](O)[C@@H](C)C(=O)C(C)(C)[C@@H](O)CC(=O)O1 [Patupilone] (0.1 nM)	90.9%	102%	55.8%	99%	110%	104%	–	103%	110%	–	87.2%	104%	102%	99.2%	81.1%	102%	91.4%	68%
COC(=O)C[C@](O)(CCCC(C)(C)O)C(=O)O[C@@H]1C(OC)=C[C@]23CCCN2CCc2cc4c(cc2[C@H]13)OCO4 [Omacetaxine] (1 nM)	107%	101%	120%	106%	113%	98.5%	–	86.3%	–	98.4%	91.9%	106%	101%	97.6%	111%	114%	83.7%	108%
CCC1=C[C@@H]2CN(C1)Cc1c([nH]c3ccccc13)[C@@](C(=O)OC)(c1cc3c(cc1OC)N(C)[C@H]1[C@@](O)(C(=O)OC)[C@H](OC(C)=O)[C@]4(CC)C=CCN5CC[C@]31[C@@H]54)C2 [Vinorelbine] (1 nM)	109%	105%	120%	112%	101%	103%	105%	113%	–	91.4%	101%	94%	97.1%	64.6%	111%	104%	98.3%	54.6%
